Results reported in patent publication US20150118305A1, “COMPOSITIONS COMPRISING SULFORAPHANE OR A SULFORAPHANE PRECURSOR AND URSOLIC ACID” (Nutramax Laboratories, Inc., priority 2012, published 2015).

Tested on: broccoli sprout-derived myrosinase
Assay: Consumption of glucoraphanin by myrosinase as a function of ascorbic acid concentration (Example 3)
Format: biochemical
Description: About 250 mg of broccoli seed extract containing about 12% (w/w) glucoraphanin were subjected to hydrolysis by a fixed concentration of broccoli sprout-derived myrosinase in the presence of variable concentration of ascorbic acid, ranging from 0 to 600 μmoles/Liter. The reaction mixtures were thermostated at 38° C.; aliquots were withdrawn every 15 minutes for 60 minutes, and concentration of glucoraphanin determined chromatographically. The rate of glucoraphanin consumption was interpreted as the rate its conversion to sulforaphane. Graphical representation of glucoraphanin content reduction as a function of increasing ascorbic acid concentration results in a series of linear plots; the slopes of the linear regression lines reflect the rate of glucoraphanin consumption, in pmoles/minute. It is apparent that in the presence of 600 μmoles/Liter concentration of ascorbic acid, the reaction rate increased 13-fold relative to that which proceeded in the absence of modulatory effects of ascorbic acid.

SMILES: O=C1O[C@H]([C@@H](O)CO)C(O)=C1O [Ascorbic Acid, ascorbic acid]
- Intercept of linear regression (50 μM ascorbic acid): 93.271 µmol
- Intercept of linear regression (125 μM ascorbic acid): 93.123 µmol
- Intercept of linear regression (250 μM Filtered ascorbic acid): 93.386 µmol
- Intercept of linear regression (250 μM ascorbic acid): 93.053 µmol
- Intercept of linear regression (400 μM ascorbic acid): 93.270 µmol
- Intercept of linear regression (600 μM ascorbic acid): 92.734 µmol
